Experimental data published in publication PMC8228695.
No constants are given. Whether binding was seen depends on the method and setting. Binding seen in cells or lysates may run through a third protein. Some entries that bind do so weakly or less than the wild type.

By UniProt entry, the sequences of proteins in these tests, tags left out.
UniProt Q9UM11: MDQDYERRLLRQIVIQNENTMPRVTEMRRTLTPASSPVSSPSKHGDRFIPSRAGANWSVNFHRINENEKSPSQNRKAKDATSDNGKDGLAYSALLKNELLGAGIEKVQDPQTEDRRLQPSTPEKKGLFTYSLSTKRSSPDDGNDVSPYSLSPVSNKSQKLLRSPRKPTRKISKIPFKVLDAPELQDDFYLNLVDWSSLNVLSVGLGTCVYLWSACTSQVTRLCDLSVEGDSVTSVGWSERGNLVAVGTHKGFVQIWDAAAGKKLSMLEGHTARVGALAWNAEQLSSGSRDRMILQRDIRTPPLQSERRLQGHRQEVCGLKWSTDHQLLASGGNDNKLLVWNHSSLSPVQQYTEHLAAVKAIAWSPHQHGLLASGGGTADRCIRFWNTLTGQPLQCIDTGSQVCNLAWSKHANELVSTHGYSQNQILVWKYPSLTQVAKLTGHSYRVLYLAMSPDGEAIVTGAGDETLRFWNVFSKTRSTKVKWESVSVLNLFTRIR

T1: FBXL8 (F-Box/Leucine Rich Repeat Protein 8) (human (endogenous in human BRCA cell lines MCF7, MDA-MB231)) (UniProt Q96CD0)
T1 sequence: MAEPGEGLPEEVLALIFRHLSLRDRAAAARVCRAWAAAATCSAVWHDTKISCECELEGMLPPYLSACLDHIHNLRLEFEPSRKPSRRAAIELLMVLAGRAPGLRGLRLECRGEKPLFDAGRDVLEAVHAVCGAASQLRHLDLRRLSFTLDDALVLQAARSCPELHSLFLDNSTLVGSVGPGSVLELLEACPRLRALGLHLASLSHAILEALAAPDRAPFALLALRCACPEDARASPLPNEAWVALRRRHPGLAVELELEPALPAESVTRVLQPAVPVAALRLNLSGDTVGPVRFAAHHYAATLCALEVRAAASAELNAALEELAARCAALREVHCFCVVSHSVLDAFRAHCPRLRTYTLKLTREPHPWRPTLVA


Experiments:
Assay in all cases: co-IP; IP with anti-FBXL8, anti-FZR1 or anti-CCNF antibodies (control IgG or IgG2b) in BRCA cells, immunoblotting with anti-FBXL8, anti-FZR1, anti-CCNF or anti-RRM2 antibodies
[1] = substrate: T2, CCNF (Cyclin F) (human (endogenous in human BRCA cell lines MCF7, MDA-MB231)) (UniProt P41002)
T2 sequence: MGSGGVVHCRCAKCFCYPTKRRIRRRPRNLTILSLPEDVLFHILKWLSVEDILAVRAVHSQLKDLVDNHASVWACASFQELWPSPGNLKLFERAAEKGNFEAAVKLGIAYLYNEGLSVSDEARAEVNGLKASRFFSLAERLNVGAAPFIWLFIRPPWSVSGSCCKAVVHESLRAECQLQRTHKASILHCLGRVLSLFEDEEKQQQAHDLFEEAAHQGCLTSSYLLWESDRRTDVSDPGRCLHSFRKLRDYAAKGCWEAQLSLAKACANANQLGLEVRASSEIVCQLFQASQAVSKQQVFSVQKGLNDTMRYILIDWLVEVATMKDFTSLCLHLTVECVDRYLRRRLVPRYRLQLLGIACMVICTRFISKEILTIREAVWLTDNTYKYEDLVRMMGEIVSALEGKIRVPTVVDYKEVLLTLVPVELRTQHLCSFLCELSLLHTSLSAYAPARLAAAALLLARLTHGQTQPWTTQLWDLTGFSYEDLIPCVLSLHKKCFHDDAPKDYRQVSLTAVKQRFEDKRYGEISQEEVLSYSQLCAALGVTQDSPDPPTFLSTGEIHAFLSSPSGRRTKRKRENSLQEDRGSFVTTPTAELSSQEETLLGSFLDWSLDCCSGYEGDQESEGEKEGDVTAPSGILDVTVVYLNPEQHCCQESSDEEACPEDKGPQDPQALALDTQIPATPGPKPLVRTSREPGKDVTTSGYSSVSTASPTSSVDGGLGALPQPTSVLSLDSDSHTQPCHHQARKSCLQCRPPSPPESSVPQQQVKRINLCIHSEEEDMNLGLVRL

[2] = target: FZR1 (human (endogenous in human BRCA cell lines MCF7, MDA-MB231)) (UniProt Q9UM11)
[3] = target: T1, FBXL8 (F-Box/Leucine Rich Repeat Protein 8) (human (endogenous in human BRCA cell lines MCF7, MDA-MB231))

Row | binding [1] | binding [2] | binding [3] | Binder
1 | binds |  |  | RRM2 (Ribonucleotide reductase M2) (protein, UniProt P31350 1-389) MLSLRVPLAPITDPQQLQLSPLKGLSLVDKENTPPALSGTRVLASKTARRIFQEPTEPKTKAAAPGVEDEPLLRENPRRFVIFPIEYHDIWQMYKKAEASFWTAEEVDLSKDIQHWESLKPEERYFISHVLAFFAASDGIVNENLVERFSQEVQITEARCFYGFQIAMENIHSEMYSLLIDTYIKDPKEREFLFNAIETMPCVKKKADWALRWIGDKEATYGERVVAFAAVEGIFFSGSFASIFWLKKRGLMPGLTFSNELISRDEGLHCDFACLMFKHLVHKPSEERVREIIINAVRIEQEFLTEALPVKLIGMNCTLMKQYIEFVADRLMLELGFSKVFRVENPFDFMENISLEGKTNFFEKRVGEYQRMGVMSSPTENSFTLDADF
2 |  | binds | binds | CCNF (Cyclin F) (protein, UniProt P41002 1-786) MGSGGVVHCRCAKCFCYPTKRRIRRRPRNLTILSLPEDVLFHILKWLSVEDILAVRAVHSQLKDLVDNHASVWACASFQELWPSPGNLKLFERAAEKGNFEAAVKLGIAYLYNEGLSVSDEARAEVNGLKASRFFSLAERLNVGAAPFIWLFIRPPWSVSGSCCKAVVHESLRAECQLQRTHKASILHCLGRVLSLFEDEEKQQQAHDLFEEAAHQGCLTSSYLLWESDRRTDVSDPGRCLHSFRKLRDYAAKGCWEAQLSLAKACANANQLGLEVRASSEIVCQLFQASQAVSKQQVFSVQKGLNDTMRYILIDWLVEVATMKDFTSLCLHLTVECVDRYLRRRLVPRYRLQLLGIACMVICTRFISKEILTIREAVWLTDNTYKYEDLVRMMGEIVSALEGKIRVPTVVDYKEVLLTLVPVELRTQHLCSFLCELSLLHTSLSAYAPARLAAAALLLARLTHGQTQPWTTQLWDLTGFSYEDLIPCVLSLHKKCFHDDAPKDYRQVSLTAVKQRFEDKRYGEISQEEVLSYSQLCAALGVTQDSPDPPTFLSTGEIHAFLSSPSGRRTKRKRENSLQEDRGSFVTTPTAELSSQEETLLGSFLDWSLDCCSGYEGDQESEGEKEGDVTAPSGILDVTVVYLNPEQHCCQESSDEEACPEDKGPQDPQALALDTQIPATPGPKPLVRTSREPGKDVTTSGYSSVSTASPTSSVDGGLGALPQPTSVLSLDSDSHTQPCHHQARKSCLQCRPPSPPESSVPQQQVKRINLCIHSEEEDMNLGLVRL
